In this experiment the target is T1, GRA7 (T. gondii (endogenous in ME49 tachyzoites)) (UniProt O00933).
T1 sequence: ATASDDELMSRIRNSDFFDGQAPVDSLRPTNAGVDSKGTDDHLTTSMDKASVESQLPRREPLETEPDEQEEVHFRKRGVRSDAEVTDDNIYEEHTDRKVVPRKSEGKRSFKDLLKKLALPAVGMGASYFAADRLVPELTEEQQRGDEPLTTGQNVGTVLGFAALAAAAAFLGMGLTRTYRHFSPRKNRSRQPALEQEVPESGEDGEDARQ
The experiment in a line: cross-linking; XL-MS: tachyzoite soluble cytosolic lysate (hypotonic lysis), 1 µg/µL in 1x PBS, 5 mM Azide-A-DSBSO, 2 h at room temperature; digested, DBCO-bead enrichment, LC-MS/MS; cleavable (MS Annika) and non-cleavable (pLink 3) searches; low-score hits salvaged by machine learning; re-searched against a combined human and parasite database for host-parasite pairs.

By UniProt entry, the sequences of proteins in these tests, tags left out. Where a name states a change or a piece, a line headed by the entry shows the natural chain unless it says otherwise.
UniProt B6KEU8: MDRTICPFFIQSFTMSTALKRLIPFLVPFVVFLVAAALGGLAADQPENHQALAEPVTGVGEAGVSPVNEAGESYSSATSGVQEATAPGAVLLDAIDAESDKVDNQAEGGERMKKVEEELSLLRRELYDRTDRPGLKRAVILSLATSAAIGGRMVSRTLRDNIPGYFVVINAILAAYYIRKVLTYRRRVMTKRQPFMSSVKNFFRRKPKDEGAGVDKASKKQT

No constants are given. Whether binding was seen depends on the method and setting. In cells and extracts the contact can be indirect. Binding calls can cover weak binding; strength is not graded here.

Take GRA3 (from UniProt B6KEU8): the binding result is on record as “binds”.

The record behind these values is paper PMC12505969.
